# Among all 1,300 compounds or so, about 270 (21%) were called active.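 How the source made its calls: active means dose-dependent rise or fall in viability, either side of zero, with half-maximal concentration at or below a set limit; inconclusive means flat curve at 30 to 70% viability loss, or poor fit; inactive means flat within 30% either way, or potency beyond limit.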 Some of the results follow. Potency and affinity values are given separately.
# Test: proliferation inhibition in MITF-low A375 cells – cell-based, cherry-pick samples, set 2, counter-screen for MITF modulator project, dose response (AID 540335);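 further: A375 human melanoma cells which do not depend on MITF; 0% = median of neutral control wells and 100% = double that signal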
# Settings: CellTiter-Glo ATP luminescence, 24 h; at 35 µM (top of the series)
row,Structure (SMILES),"activity change, negative = decreased viability"
1,Cc1ccc2c(COC(=O)c3n[nH]c4ccccc34)cc(=O)oc2c1,inactive: 8.63%
2,CC(C)(C)C(=O)Nc1cc2nn(-c3ccccc3)nc2cc1Cl,inactive: -8.34%
3,Cc1cc(C)c2c(N)c(C(=O)Nc3ncc(C)s3)sc2n1,inactive: -18.7%
4,Cc1occc1C(=O)N/N=C/c1ccc(OCc2ccccc2)cc1,inactive: 7.83%
5,Cc1ccc(C(=O)c2coc3ccc(O)c(Cl)c23)cc1,inactive: 28.7%
6,CN(C)c1ccc(-n2cccc2/C=C/[N+](=O)[O-])cc1,inactive: -3.05%
7,O=C(Nc1ccc2ncccc2c1)c1ccccc1Br,inactive: 9.05%
8,CCOC(=O)c1cc2sccc2n1CC(=O)N1c2ccccc2CC1C (stereo not given),inactive: -32.3%
9,COc1ccc(N(C(=O)CCl)C(C(=O)NC2CCCCC2)c2cccnc2)cc1 (stereo not given),inactive: 46.5%
10,CC(=O)Nc1nc(C)c(-c2csc(Nc3cccc(C(C)=O)c3)n2)s1,inactive: -21.3%
11,Cc1ccc(CC(=O)Nc2ccc(Cl)cn2)cc1,inactive: 6.23%
12,N/C(=N\OC(=O)Cc1cccs1)c1ccccc1,inactive: 6.82%
13,COc1cc(/C=N/NC(N)=O)c(Br)cc1OCC(=O)Nc1ccccc1C,inactive: -37.4%
14,COc1cccc(C(=O)Nc2ccc3c(cc2=O)[C@@H](NC(C)=O)CCc2cc(OC)c(OC)c(OC)c2-3)c1,inactive: -4.06%
15,Cc1ccc2nc(NC(=O)CSCC(=O)OCC(=O)c3ccccc3)sc2c1,inactive: -14.9%
16,CC(C)(C)OC(=O)N1CCN(C(=O)c2nc[nH]c2C(=O)N2CCN(c3ccccc3)CC2)CC1,inactive: 2.83%
17,COC(=O)c1ccc(/C=C(\C#N)C(=O)NC(C)c2ccccc2)cc1 (stereo not given),inactive: -0.974%
18,O=C(COc1ccccc1)N/N=C/c1ccc([N+](=O)[O-])o1,inactive: -8.29%
19,C=CCn1cccc(C(=O)Nc2ccc(C)c(Cl)c2)c1=O,inactive: -1.87%
20,COC1=C(Nc2ccc(O)cc2)C(=O)c2ccccc2C1=O,inactive: -34.3%

# Single values from the list.
# activity change, negative = decreased viability with COC1=C(Nc2ccc(O)cc2)C(=O)c2ccccc2C1=O is entered as inactive: -34.3%
# activity change, negative = decreased viability with CCOC(=O)c1cc2sccc2n1CC(=O)N1c2ccccc2CC1C (stereo not given) is entered as inactive: -32.3%
# activity change, negative = decreased viability with Cc1cc(C)c2c(N)c(C(=O)Nc3ncc(C)s3)sc2n1 is entered as inactive: -18.7%
# activity change, negative = decreased viability with COc1cc(/C=N/NC(N)=O)c(Br)cc1OCC(=O)Nc1ccccc1C is entered as inactive: -37.4%
# activity change, negative = decreased viability with Cc1occc1C(=O)N/N=C/c1ccc(OCc2ccccc2)cc1 is entered as inactive: 7.83%

# (listing goes on)

row,Structure (SMILES),"activity change, negative = decreased viability"
1,COc1cccc(/C=N/Nc2nc3ccccc3[nH]2)c1OC,inactive: 9.81%
2,O=Cc1ccc(N2Cc3ccccc3C2)cc1,inactive: 0.449%
3,COc1ccccc1-c1cc(C(F)(F)F)nc(S(C)(=O)=O)n1,inactive: -3.05%
4,Cc1c(NC(=O)c2ccc([N+](=O)[O-])o2)cccc1-c1nc2ncccc2o1,inactive: -3.64%
5,NNC(=O)Cn1c(SCc2ccccc2)nc2ccccc21,inactive: -2.53%
6,Cn1c(COc2ccccc2)nc2ccccc21,inactive: 5.66%
7,CCOC(=O)CSc1nc2cc(OCC)ccc2cc1C#N,inactive: 7.09%
8,Oc1cc(NCc2cccnc2)ccc1-c1nc2ccccc2o1,inactive: -5.26%
9,CCCc1ccc(-c2ccc(/C=C/C(=O)O)cc2)nc1,inactive: 6.8%
10,Cc1ccc(NC(=O)c2ccc([N+](=O)[O-])o2)cc1S(=O)(=O)N1CCOCC1,inactive: 13.3%
11,COc1ccc(N/C=C\C(=O)c2ccc3ccccc3c2)cc1,inactive: 15.8%
12,CC1=NC(=O)C(N=Nc2cccc(C(=O)O)c2)N1c1ccccc1 (stereo not given),inactive: -0.293%
13,CCN1CCc2c(sc(NC(=O)c3ccc(S(=O)(=O)N4CCCCCC4)cc3)c2C(=O)NC)C1,inactive: -9.09%
14,CC(C)C(=O)N1CCN(c2ccc(NC(=O)c3ccc([N+](=O)[O-])o3)cc2)CC1,inactive: 17.6%
15,Cc1ccc(C(=O)c2no[n+]([O-])c2C(=O)c2ccc(C)cc2)cc1,inactive: -8.72%
16,CC(C)(C)C(=O)/C(=C/c1ccncc1)n1cncn1,inactive: 7.09%
17,CCN(CC)Cc1c(O)ccc2c1O/C(=C\C=C\c1ccccc1)C2=O,inactive: 0.171%
18,Cc1ccccc1OCC(=O)Nc1cccc(C(=O)O)c1,inactive: 5.58%
19,COC(=O)c1c(NC(=O)c2nc3ccccc3s2)sc2c1CC(C)(C)NC2(C)C,inactive: -78.2%
20,Cc1cc(C(=O)N/N=C/c2ccc([N+](=O)[O-])o2)c(C)o1,inactive: -13.2%

row,Structure (SMILES),"activity change, negative = decreased viability"
1,Cn1c(/C=C/c2cccc([N+](=O)[O-])c2)c([N+](=O)[O-])c(=O)n(C)c1=O,inactive: 11.9%
2,CN(C)/C=N/c1ncc(C(=O)c2ccccc2)s1,inactive: 7.2%
3,O=[N+]([O-])c1ccc(/C=N/n2cnc3ccccc32)s1,inactive: -23.5%
4,Cc1ccc2c(c1)Oc1ccc(NC(=O)CCl)cc1C(=O)N2,inactive: -29.5%
5,COc1cc(C(=O)Oc2c(CN3CCOCC3)cc(Cl)c3cccnc23)cc(OC)c1OC,inactive: -24.5%
6,CC1(C)CC(NC(=O)c2ccc(Cl)c(S(=O)(=O)N(Cc3ccccc3)c3ccccc3)c2)CC(C)(C)N1,inactive: -56.2%
7,O=C(CNc1ccc2ccccc2c1)N/N=C/c1ccc([N+](=O)[O-])o1,inactive: -2.61%
8,O=C(NCc1ccccc1)NC1(C(=O)Nc2ccc3c(c2)OCCO3)CCCCC1,inactive: -5.78%
9,Nc1ccc(-c2nc3c(Cl)cc(N)cc3[nH]2)cc1,inactive: -11%
10,CCOc1ccc(NC(=O)CCC(=O)N/N=C/c2ccc([N+](=O)[O-])s2)cc1,inactive: 1.66%
11,Cn1c(COc2ccccc2Br)nc2ccccc21,inactive: -3.81%
12,CN(C)CCCNC(=O)/C(=C\c1ccc(-c2ccc(Br)cc2)o1)NC(=O)c1ccccc1,inactive: -70.8%
13,Cc1c(C=O)c2cc(OCc3ccccc3)ccc2n1C,inactive: 6.35%
14,CCOC(=O)c1cnc2c(ccc3ccccc32)c1N,inactive: 7.59%
15,CCc1ccc(Nc2nc(C)cc(C)n2)cc1,inactive: -7.25%
16,O=C1CN(c2ccccc2)C(=S)N1C(=O)c1ccc(Br)cc1,inactive: 2.51%
17,CCN(CC)S(=O)(=O)c1cccc(C(=O)N/N=C/c2ccc([N+](=O)[O-])o2)c1,inactive: -19.6%
18,CC(Oc1ccc(F)cc1)C(=O)Nc1nc(-c2ccccn2)cs1 (stereo not given),inactive: -17.3%
19,CCOc1ccc2nc(C)cc(Nc3cccc([N+](=O)[O-])c3)c2c1,inactive: -48.8%
20,CCOc1ccc(-n2c(-c3ccc(Br)cc3)c[n+]3c2CCCCC3)cc1,inactive: -24%

# Reference: PubChem BioAssay AID540335 (Broad Institute, 2011)
